This is one part of the list. Residues, ends and D or L forms follow the SMILES beside them. *: point of attachment. Cbz = O=C(OCc1ccccc1)*
Key:
Assay in all cases: log2 fold change, soluble protein after heating vs DMSO (PISA); higher = thermal stabilisation; K562 cells, 10 uM, 30 min; active = over 0.2 and 3.5 SD of the protein, either way, in both replicates (recomputed)
IRAK-1-4 Inhibitor I = compound: C1COCCN1CCN2C3=CC=CC=C3N=C2NC(=O)C4=CC(=CC=C4)[N+](=O)[O-] [IRAK-1-4 Inhibitor I]
Summary of the method: (§1)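 Values are thermal stability changes relative to control samples and are taken from duplicates. They are stated as log2 fold changes. Before quantification by TMTpro 16plex LC-MS/MS with equalised channel sums, K562 cells at 2×10^6 cells/mL were treated with 10 μM compound for 30 min, heated in aliquots for 3 min across 48°C-58°C, pooled, extracted in PBS with 0.5% NP-40 at 4°C, and centrifuged at 21,000xg for 90 min to give the soluble supernatant.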

Sequences of proteins named here, by UniProt entry; tags and fusion partners are left off. A change or cut given only in a name is not applied to a line headed by its entry.
UniProt Q9NU23: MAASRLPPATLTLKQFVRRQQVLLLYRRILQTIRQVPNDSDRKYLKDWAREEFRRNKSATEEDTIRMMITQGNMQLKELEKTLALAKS
UniProt O95777: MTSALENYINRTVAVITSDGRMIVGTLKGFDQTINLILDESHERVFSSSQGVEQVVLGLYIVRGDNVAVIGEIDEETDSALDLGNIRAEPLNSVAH
UniProt Q9BQ69: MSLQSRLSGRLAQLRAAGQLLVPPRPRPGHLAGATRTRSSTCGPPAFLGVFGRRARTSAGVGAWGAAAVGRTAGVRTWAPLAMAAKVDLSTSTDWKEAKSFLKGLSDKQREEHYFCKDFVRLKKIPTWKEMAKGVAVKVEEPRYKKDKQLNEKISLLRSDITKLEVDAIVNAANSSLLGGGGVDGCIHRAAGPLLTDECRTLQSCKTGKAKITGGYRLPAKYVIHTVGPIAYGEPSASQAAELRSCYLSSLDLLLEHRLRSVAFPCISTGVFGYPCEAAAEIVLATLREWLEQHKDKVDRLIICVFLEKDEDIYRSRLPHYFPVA
UniProt O75608: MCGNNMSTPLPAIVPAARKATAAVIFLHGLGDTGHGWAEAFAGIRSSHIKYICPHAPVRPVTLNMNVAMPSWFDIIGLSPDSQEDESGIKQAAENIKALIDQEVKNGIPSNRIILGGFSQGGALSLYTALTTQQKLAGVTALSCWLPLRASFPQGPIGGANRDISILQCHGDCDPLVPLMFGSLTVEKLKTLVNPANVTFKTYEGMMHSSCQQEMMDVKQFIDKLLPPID
UniProt O00754: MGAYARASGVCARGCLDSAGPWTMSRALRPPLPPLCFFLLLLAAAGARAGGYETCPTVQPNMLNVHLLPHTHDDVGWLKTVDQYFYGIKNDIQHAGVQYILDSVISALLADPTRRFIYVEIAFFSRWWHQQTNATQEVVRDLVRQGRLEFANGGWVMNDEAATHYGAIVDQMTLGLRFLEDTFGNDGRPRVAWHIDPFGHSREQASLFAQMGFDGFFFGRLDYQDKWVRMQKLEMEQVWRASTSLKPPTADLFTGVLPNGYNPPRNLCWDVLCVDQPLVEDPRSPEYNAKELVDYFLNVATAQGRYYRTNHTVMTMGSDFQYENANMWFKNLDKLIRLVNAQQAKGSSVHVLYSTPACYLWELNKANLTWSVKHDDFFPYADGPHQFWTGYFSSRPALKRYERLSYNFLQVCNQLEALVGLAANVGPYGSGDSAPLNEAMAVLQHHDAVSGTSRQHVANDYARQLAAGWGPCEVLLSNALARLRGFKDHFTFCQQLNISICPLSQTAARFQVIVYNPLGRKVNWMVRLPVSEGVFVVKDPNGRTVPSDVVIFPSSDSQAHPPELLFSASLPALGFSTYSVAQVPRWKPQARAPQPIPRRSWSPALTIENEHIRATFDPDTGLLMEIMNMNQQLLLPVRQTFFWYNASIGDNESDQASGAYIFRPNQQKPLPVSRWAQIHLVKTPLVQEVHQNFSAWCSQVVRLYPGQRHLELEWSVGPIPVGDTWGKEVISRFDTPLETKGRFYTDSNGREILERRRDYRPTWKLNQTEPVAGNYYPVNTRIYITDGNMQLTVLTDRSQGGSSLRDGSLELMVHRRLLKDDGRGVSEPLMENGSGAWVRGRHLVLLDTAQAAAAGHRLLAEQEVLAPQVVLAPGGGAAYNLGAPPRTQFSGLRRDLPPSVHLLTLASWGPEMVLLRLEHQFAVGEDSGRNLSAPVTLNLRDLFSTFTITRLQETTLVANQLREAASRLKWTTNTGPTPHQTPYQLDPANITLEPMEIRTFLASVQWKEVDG
UniProt Q9NQ48: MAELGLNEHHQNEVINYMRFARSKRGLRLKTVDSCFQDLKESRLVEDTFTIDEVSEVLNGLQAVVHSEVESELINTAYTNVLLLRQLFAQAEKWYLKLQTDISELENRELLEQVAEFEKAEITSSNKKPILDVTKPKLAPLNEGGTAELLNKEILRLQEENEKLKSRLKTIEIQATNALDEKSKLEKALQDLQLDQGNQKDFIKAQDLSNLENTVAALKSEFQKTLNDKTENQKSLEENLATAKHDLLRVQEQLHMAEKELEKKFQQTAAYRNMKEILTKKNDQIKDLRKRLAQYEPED
UniProt Q5U5X0: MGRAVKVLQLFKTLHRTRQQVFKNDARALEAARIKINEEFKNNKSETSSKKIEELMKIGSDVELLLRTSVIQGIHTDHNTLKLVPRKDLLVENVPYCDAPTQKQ
UniProt P43366: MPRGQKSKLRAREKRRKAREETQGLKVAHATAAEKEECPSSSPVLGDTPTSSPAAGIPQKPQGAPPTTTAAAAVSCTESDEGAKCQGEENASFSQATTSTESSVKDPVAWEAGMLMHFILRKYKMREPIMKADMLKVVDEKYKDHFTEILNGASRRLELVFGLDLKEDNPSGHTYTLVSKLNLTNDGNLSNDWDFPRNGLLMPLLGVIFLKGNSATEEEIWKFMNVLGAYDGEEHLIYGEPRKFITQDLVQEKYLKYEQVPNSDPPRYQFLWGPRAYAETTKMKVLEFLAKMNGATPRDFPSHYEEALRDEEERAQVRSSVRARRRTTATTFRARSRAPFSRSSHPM
UniProt O60476: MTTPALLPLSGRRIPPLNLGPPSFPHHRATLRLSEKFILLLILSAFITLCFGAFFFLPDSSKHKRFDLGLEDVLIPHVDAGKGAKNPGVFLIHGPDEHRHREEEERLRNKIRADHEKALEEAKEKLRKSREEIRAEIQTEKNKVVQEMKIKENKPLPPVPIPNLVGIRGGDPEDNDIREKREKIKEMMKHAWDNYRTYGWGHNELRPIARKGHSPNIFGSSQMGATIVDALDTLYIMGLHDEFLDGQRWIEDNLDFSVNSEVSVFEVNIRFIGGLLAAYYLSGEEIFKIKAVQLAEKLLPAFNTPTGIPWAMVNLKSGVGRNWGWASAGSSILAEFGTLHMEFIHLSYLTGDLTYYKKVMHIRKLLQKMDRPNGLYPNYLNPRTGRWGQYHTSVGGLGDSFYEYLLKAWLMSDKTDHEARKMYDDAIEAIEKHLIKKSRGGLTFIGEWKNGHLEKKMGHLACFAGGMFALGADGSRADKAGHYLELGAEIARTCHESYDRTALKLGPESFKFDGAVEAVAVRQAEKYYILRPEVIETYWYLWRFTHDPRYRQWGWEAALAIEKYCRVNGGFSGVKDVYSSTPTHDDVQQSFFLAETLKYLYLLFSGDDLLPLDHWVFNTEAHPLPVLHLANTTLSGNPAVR
UniProt P02788: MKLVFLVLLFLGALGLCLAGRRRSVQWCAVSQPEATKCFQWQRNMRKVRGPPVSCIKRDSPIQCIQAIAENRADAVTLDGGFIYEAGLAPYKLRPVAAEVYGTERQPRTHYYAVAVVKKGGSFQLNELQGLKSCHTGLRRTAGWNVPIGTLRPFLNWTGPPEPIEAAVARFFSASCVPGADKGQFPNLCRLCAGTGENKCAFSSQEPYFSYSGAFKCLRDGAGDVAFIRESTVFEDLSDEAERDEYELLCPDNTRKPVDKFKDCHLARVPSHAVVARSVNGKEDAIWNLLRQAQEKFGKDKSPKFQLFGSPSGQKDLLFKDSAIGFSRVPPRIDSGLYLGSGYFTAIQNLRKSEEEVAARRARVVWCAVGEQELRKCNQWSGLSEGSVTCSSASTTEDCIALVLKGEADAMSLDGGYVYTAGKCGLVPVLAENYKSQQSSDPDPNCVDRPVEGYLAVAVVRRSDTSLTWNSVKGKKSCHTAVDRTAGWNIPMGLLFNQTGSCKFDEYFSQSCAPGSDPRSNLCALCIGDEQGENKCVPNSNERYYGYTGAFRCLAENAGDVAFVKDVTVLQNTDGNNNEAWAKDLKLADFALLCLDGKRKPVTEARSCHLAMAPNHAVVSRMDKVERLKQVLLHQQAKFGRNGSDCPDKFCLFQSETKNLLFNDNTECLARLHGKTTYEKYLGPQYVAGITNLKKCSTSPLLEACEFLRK
UniProt P33908: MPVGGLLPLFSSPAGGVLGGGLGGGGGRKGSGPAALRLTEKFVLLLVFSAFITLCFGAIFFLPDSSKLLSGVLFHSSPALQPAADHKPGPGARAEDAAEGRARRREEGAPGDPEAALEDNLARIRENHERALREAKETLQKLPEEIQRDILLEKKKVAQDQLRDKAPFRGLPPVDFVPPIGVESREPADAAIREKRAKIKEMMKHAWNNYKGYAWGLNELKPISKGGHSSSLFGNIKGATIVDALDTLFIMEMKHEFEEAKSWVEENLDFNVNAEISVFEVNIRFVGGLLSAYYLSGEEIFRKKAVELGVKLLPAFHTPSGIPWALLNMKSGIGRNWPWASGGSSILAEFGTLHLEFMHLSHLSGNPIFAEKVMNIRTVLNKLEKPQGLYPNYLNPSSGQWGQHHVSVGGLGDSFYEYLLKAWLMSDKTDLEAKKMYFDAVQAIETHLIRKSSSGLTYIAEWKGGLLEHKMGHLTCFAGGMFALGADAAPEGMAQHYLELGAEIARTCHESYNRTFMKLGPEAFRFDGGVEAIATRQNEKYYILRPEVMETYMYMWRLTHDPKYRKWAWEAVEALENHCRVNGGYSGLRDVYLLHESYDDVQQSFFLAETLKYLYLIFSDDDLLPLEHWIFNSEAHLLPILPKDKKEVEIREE
UniProt Q6ZN28: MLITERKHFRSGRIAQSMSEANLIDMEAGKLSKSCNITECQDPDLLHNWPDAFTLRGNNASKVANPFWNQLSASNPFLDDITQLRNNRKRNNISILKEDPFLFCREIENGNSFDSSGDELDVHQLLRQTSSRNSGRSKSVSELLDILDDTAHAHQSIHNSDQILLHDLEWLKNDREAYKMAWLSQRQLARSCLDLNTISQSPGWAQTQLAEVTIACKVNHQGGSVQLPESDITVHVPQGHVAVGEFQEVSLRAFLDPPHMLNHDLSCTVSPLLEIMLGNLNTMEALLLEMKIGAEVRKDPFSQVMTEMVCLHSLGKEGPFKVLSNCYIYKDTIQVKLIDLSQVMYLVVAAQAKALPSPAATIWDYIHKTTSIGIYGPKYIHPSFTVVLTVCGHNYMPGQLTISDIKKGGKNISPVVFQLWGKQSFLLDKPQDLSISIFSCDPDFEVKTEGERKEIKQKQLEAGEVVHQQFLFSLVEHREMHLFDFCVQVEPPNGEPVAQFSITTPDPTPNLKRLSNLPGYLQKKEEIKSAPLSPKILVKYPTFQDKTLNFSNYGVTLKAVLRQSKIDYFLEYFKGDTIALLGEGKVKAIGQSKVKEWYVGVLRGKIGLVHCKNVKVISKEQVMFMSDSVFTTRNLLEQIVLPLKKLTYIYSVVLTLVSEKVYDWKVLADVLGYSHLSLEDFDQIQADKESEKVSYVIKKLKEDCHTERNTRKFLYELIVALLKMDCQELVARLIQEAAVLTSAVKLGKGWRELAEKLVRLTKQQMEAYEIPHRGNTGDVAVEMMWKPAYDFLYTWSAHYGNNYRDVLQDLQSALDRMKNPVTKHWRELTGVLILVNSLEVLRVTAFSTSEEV

ibrutinib = compound: C=CC(=O)N1CCC[C@@H](n2nc(-c3ccc(Oc4ccccc4)cc3)c3c(N)ncnc32)C1 [ibrutinib]
Summary of the method: as §1

[1] = compound: CC(=O)c1cnc2ccc(-c3cc(Cl)c(O)c(Cl)c3)nc2c1N[C@H]1CC[C@H](CN(C)C)CC1
Summary of the method: as §1

ralimetinib = compound: CC(C)(C)Cn1c(N)nc2ccc(-c3[nH]c(C(C)(C)C)nc3-c3ccc(F)cc3)nc21 [ralimetinib]
Summary of the method: as §1

[2] = compound: CC(C)(O)CC(=O)NCCn1ccc2ncnc(Nc3ccc(Oc4cccc(C(F)(F)F)c4)c(Cl)c3)c21
Summary of the method: as §1

[3] = compound: CC(C)C1=C2N=C(C=C(N2N=C1)NCC3=CC=CC=C3)NCCCCCCN
Summary of the method: as §1

[4] = compound: CC(C)C[C@@H](C=O)NC(=O)[C@H](CC(C)C)NC(=O)[C@H](CC(C)C)NC(=O)OCc1ccccc1
Summary of the method: as §1

pinometostat = compound: CC(C)N(C[C@H]1O[C@@H](n2cnc3c(N)ncnc32)[C@H](O)[C@@H]1O)[C@H]1C[C@@H](CCc2nc3cc(C(C)(C)C)ccc3[nH]2)C1 [pinometostat]
Summary of the method: as §1

[5] = compound: CC1=C(C(CC(=O)N1)C2=CC=C(C=C2)C(F)(F)F)C(=O)NC3=C(C=C4C(=C3)C=NN4)F
Summary of the method: as §1

[6] = compound: CC1=C(C2=C(C=C1)C(=O)C3=CC=CC=C3N2CCCN)C
Summary of the method: as §1

[7] = compound: CC1=C(C=C(C=C1)NC(=O)C2=CC(=CC=C2)C(C)(C)C#N)NC3=CC4=C(C=C3)N=CN(C4=O)C
Summary of the method: as §1

[8] = compound: CC1=C(C=C(C=C1)NC(=O)C2=CC(=CC=C2)N(C)C)NC(=O)C3=CC=C(C=C3)O
Summary of the method: as §1

[9] = compound: CC1=CC=C(C=C1)SC2=C3C=C(SC3=CN=C2)C(=O)N
Summary of the method: as §1

[10] = compound: CC1=NC(=CC=C1)C2=C(N=C(N2)C(C)(C)C)C3=CC4=NC=CN=C4C=C3
Summary of the method: as §1

Nexturastat A = compound: CCCCN(Cc1ccc(C(=O)NO)cc1)C(=O)Nc1ccccc1 [Nexturastat A]
Summary of the method: as §1

vemurafenib = compound: CCCS(=O)(=O)Nc1ccc(F)c(C(=O)c2c[nH]c3ncc(-c4ccc(Cl)cc4)cc23)c1F [vemurafenib]
Summary of the method: as §1

[11] = compound: CCCS(=O)(=O)Nc1ccc(F)c(C(=O)c2c[nH]c3ncc(Cl)cc23)c1F
Summary of the method: as §1

[12] = compound: CCCc1cc(C)[nH]c(=O)c1CNC(=O)c1cc(-c2ccnc(N3CCN(C)CC3)c2)cc2c1cnn2C(C)C
Summary of the method: as §1

givinostat = compound: CCN(CC)Cc1ccc2cc(COC(=O)Nc3ccc(C(=O)NO)cc3)ccc2c1 [givinostat]
Summary of the method: as §1

barasertib = compound: CCN(CCCOc1ccc2c(Nc3cc(CC(=O)Nc4cccc(F)c4)[nH]n3)ncnc2c1)CCOP(=O)(O)O [barasertib]
Summary of the method: as §1

Measured: log2 fold change

LYRM2 (UniProt Q9NU23)
inactive: IRAK-1-4 Inhibitor I -0.001 | ibrutinib 0.01 | [1] -0.026 | ralimetinib -0.034 | [2] -0.024 | [3] -0.015 | [4] -0.022 | pinometostat -0.065 | [5] -0.017 | [6] 0 | [7] 0.034 | [8] -0.017 | [9] 0.036 | [10] 0.052 | Nexturastat A -0.007 | vemurafenib 0.09 | [11] -0.149 | [12] -0.078 | givinostat -0.008 | barasertib -0.016

LSM8 (UniProt O95777)
inactive: IRAK-1-4 Inhibitor I 0.008 | ibrutinib -0.017 | [1] -0.028 | ralimetinib -0.061 | [2] 0.019 | [3] 0.06 | [4] -0.012 | pinometostat -0.07 | [5] -0.008 | [6] 0.035 | [7] -0.025 | [8] 0.021 | [9] -0.021 | [10] 0.011 | Nexturastat A -0.076 | vemurafenib -0.011 | [11] -0.017 | [12] -0.048 | givinostat -0.019 | barasertib -0.004

MACROD1 (UniProt Q9BQ69)
inactive: IRAK-1-4 Inhibitor I -0.11 | ibrutinib 0.029 | [1] -0.069 | ralimetinib 0.173 | [2] -0.221 | [3] -0.14 | [4] -0.029 | pinometostat -0.019 | [5] -0.06 | [6] 0.144 | [7] 0.059 | [8] -0.066 | [9] -0.071 | [10] 0.071 | Nexturastat A -0.069 | vemurafenib -0.07 | [11] 0.114 | [12] 0.077 | givinostat 0.131 | barasertib 0.16

LYPLA1 (UniProt O75608)
inactive: IRAK-1-4 Inhibitor I 0.022 | ibrutinib -0.005 | [1] -0.009 | ralimetinib -0.134 | [2] -0.045 | [3] 0.006 | [4] -0.105 | pinometostat -0.065 | [5] -0.005 | [6] 0.125 | [7] -0.079 | [8] -0.07 | [9] 0.032 | [10] 0.049 | Nexturastat A -0.023 | vemurafenib -0.085 | [11] 0.014 | [12] -0.025 | givinostat -0.08 | barasertib 0.036

MACF1 (UniProt Q9UPN3)
inactive: IRAK-1-4 Inhibitor I -0.1 | ibrutinib -0.044 | [1] -0.078 | ralimetinib 0.132 | [2] 0.004 | [3] -0.212 | [4] 0.099 | pinometostat 0.16 | [5] -0.024 | [6] -0.009 | [7] 0.048 | [8] -0.028 | [9] -0.02 | [10] -0.028 | Nexturastat A 0.185 | vemurafenib 0.023 | [11] 0.029 | [12] 0.087 | givinostat 0.043 | barasertib -0.007

MAP1B (UniProt P46821)
inactive: IRAK-1-4 Inhibitor I -0.035 | ibrutinib -0.01 | [1] -0.012 | ralimetinib 0.04 | [2] 0.044 | [3] 0.04 | [4] 0.004 | pinometostat 0.025 | [5] 0 | [6] 0.019 | [7] -0.037 | [8] -0.012 | [9] -0.017 | [10] -0.032 | Nexturastat A 0.052 | vemurafenib -0.027 | [11] -0.032 | [12] 0.002 | givinostat 0.003 | barasertib -0.033

MAN2B1 (UniProt O00754)
inactive: IRAK-1-4 Inhibitor I 0.046 | ibrutinib 0 | [1] -0.014 | ralimetinib -0.005 | [2] 0.033 | [3] 0.004 | [4] 0.027 | pinometostat -0.024 | [5] -0.029 | [6] -0.017 | [7] -0.011 | [8] 0.041 | [9] -0.005 | [10] 0.092 | Nexturastat A -0.01 | vemurafenib 0.102 | [11] 0.008 | [12] 0.045 | givinostat -0.221 | barasertib -0.028

LZTFL1 (UniProt Q9NQ48)
inactive: IRAK-1-4 Inhibitor I 0.031 | ibrutinib -0.015 | [1] -0.001 | ralimetinib -0.027 | [2] -0.046 | [3] 0.056 | [4] -0.01 | pinometostat -0.013 | [5] 0 | [6] 0.03 | [7] -0.004 | [8] -0.002 | [9] 0.024 | [10] 0.024 | Nexturastat A -0.022 | vemurafenib 0.017 | [11] 0.003 | [12] -0.049 | givinostat -0.058 | barasertib 0.014

LYRM7 (UniProt Q5U5X0)
inactive: IRAK-1-4 Inhibitor I 0.011 | ibrutinib -0.006 | [1] -0.003 | ralimetinib 0.037 | [2] 0.021 | [3] -0.094 | [4] -0.009 | pinometostat 0.045 | [5] -0.014 | [6] 0.039 | [7] 0.028 | [8] 0.035 | [9] 0.013 | [10] -0.057 | Nexturastat A -0.057 | vemurafenib -0.009 | [11] -0.002 | [12] -0.012 | givinostat -0.025 | barasertib 0.001

MAGEB1 (UniProt P43366)
inactive: IRAK-1-4 Inhibitor I -0.182 | ibrutinib 0.104 | [1] 0.097 | ralimetinib 0.225 | [2] 0.04 | [3] -0.104 | [4] 0.118 | pinometostat 0.339 | [5] -0.009 | [6] -0.421 | [7] 0.042 | [8] 0.053 | [9] -0.056 | [10] -0.057 | Nexturastat A 0.369 | vemurafenib 0.008 | [11] -0.009 | [12] 0.151 | givinostat 0.07 | barasertib -0.125

MAN1A2 (UniProt O60476)
inactive: IRAK-1-4 Inhibitor I 0.006 | ibrutinib -0.022 | [1] -0.06 | ralimetinib -0.051 | [2] 0 | [3] -0.016 | [4] 0.048 | pinometostat -0.016 | [5] -0.022 | [6] -0.013 | [7] -0.007 | [8] -0.009 | [9] 0.005 | [10] 0.03 | Nexturastat A -0.048 | vemurafenib 0.021 | [11] 0.031 | [12] 0.003 | givinostat 0.025 | barasertib -0.01

LTF (UniProt P02788)
inactive: IRAK-1-4 Inhibitor I 0.111 | ibrutinib 0.136 | [1] 0.027 | ralimetinib -0.13 | [2] 0.186 | [3] 0.016 | [4] 0.073 | pinometostat 0 | [5] 0.028 | [6] -0.235 | [7] -0.156 | [8] 0.507 | [9] 0.147 | [10] 0.027 | Nexturastat A 0.011 | vemurafenib 0.015 | [11] -0.163 | [12] -0.101 | givinostat -0.192 | barasertib 0.087

MAN1A1 (UniProt P33908)
inactive: IRAK-1-4 Inhibitor I 0.001 | ibrutinib -0.004 | [1] 0.03 | ralimetinib -0.034 | [2] 0.044 | [3] 0.093 | [4] -0.026 | pinometostat -0.001 | [5] -0.016 | [6] -0.005 | [7] -0.024 | [8] -0.013 | [9] -0.009 | [10] -0.038 | Nexturastat A -0.009 | vemurafenib -0.076 | [11] -0.01 | [12] -0.003 | givinostat 0.026 | barasertib 0.009

MACC1 (UniProt Q6ZN28)
inactive: IRAK-1-4 Inhibitor I -0.027 | ibrutinib -0.038 | [1] -0.253 | ralimetinib 0.007 | [2] -0.074 | [3] -0.028 | [4] 0.109 | pinometostat 0.061 | [5] -0.282 | [6] 0.025 | [7] 0.142 | [8] -0.076 | [9] 0.059 | [10] -0.014 | Nexturastat A -0.043 | vemurafenib -0.042 | [11] 0.031 | [12] 0.042 | givinostat 0.074 | barasertib -0.003

MAPRE2 (UniProt Q15555)
inactive: IRAK-1-4 Inhibitor I -0.096 | ibrutinib -0.019 | [1] 0.07 | ralimetinib 0.101 | [2] 0.069 | [3] -0.054 | [4] -0.083 | pinometostat -0.048 | [5] -0.072 | [6] -0.029 | [7] 0.495 | [8] -0.061 | [9] 0.027 | [10] 0.357 | Nexturastat A 0.29 | vemurafenib 0.195 | [11] 0.089 | [12] 0.094 | givinostat 0.095 | barasertib 0.005

MAGEC1 (UniProt O60732)
inactive: IRAK-1-4 Inhibitor I -0.106 | ibrutinib -0.018 | [1] 0.17 | ralimetinib 0.085 | [2] 0.037 | [3] -0.26 | [4] 0.042 | pinometostat 0.245 | [5] -0.073 | [6] -0.039 | [7] -0.044 | [8] -0.047 | [9] -0.062 | [10] -0.061 | Nexturastat A 0.26 | vemurafenib 0.036 | [11] 0.021 | [12] 0.09 | givinostat 0.052 | barasertib 0.022
